Some of these results come from one statement about several compounds together.
Assay: Determination of adsorption-desorption of water vapor
Assay type: physicochemical
Conditions: isothermal water vapor adsorption-desorption, 25° C.
Method: The crystals of the present invention were inspected for their water vapor adsorption-desorption ability using BELLSORP-aqua3 available from Nippon Bell Co., Ltd. More specifically, about 300 mg of the compound represented by the formula (I) was dispensed into a measuring tube, dried at 50° C. for 30 minutes and the amount of water vapor adsorbed on or desorbed from the crystal was determined under the following conditions:
Adsorption Temperature: 25° C.; Equilibration Time: 500 sec; Saturated Vapor Pressure: 3.169 kPa;
Excessively Introduced Amount: 0.2 or 1.0 cm^3 (STP)/g; Tolerance for Increase or Decrease of Adsorbed Amount: 0.2 or 1.0 cm^3 (STP)/g.

Compound | amount of adsorbed water
COC(=O)[C@H](Cc1ccc(-n2c(=O)c3cc(N(C)C)ccc3n(C)c2=O)cc1)NC(=O)c1c(Cl)cccc1Cl [Form Br2] | < 4.0%
COC(=O)[C@H](Cc1ccc(-n2c(=O)c3cc(N(C)C)ccc3n(C)c2=O)cc1)NC(=O)c1c(Cl)cccc1Cl [Form Cl1] | < 4.0%
COC(=O)[C@H](Cc1ccc(-n2c(=O)c3cc(N(C)C)ccc3n(C)c2=O)cc1)NC(=O)c1c(Cl)cccc1Cl [Form Ms1] | < 4.0%

Reference: patent US9102630B2, “Crystals of salts of phenylalanine derivatives” (AJINOMOTO CO., INC., priority 2010, dated 2015)
